Sequences of proteins named here, by UniProt entry; tags and fusion partners are left off. A change or cut given only in a name is not applied to a line headed by its entry.
UniProt Q64514: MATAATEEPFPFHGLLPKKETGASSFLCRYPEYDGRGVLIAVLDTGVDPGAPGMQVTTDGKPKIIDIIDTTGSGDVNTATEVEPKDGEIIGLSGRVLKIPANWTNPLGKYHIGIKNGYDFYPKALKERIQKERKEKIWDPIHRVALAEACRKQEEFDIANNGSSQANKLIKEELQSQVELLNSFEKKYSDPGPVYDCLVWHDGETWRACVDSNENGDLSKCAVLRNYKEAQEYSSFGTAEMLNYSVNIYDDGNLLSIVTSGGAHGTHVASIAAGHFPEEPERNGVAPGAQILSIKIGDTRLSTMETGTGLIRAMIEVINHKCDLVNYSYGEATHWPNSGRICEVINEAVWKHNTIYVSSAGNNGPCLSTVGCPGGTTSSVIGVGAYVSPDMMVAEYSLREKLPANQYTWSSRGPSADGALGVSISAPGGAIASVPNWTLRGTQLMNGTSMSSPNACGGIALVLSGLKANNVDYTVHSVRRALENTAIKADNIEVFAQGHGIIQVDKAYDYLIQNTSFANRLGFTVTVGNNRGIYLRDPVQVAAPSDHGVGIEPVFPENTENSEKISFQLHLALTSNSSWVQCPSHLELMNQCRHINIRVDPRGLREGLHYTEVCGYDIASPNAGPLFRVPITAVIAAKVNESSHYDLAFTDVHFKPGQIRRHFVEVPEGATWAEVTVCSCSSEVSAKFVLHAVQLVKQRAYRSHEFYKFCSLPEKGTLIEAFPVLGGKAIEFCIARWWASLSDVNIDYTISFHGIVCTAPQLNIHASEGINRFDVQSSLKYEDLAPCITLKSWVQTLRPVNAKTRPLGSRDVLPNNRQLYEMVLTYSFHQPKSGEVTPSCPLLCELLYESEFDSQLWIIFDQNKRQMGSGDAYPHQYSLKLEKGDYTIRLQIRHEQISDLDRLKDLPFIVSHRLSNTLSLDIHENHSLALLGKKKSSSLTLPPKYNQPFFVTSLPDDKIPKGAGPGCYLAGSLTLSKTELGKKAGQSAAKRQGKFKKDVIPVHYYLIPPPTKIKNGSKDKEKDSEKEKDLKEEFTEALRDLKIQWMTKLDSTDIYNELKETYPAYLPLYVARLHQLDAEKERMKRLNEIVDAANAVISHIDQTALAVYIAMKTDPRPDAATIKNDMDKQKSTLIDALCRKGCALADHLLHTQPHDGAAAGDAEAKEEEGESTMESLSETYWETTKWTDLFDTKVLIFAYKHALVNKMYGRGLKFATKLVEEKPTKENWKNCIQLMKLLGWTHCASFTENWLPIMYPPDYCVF
UniProt Q68FG3: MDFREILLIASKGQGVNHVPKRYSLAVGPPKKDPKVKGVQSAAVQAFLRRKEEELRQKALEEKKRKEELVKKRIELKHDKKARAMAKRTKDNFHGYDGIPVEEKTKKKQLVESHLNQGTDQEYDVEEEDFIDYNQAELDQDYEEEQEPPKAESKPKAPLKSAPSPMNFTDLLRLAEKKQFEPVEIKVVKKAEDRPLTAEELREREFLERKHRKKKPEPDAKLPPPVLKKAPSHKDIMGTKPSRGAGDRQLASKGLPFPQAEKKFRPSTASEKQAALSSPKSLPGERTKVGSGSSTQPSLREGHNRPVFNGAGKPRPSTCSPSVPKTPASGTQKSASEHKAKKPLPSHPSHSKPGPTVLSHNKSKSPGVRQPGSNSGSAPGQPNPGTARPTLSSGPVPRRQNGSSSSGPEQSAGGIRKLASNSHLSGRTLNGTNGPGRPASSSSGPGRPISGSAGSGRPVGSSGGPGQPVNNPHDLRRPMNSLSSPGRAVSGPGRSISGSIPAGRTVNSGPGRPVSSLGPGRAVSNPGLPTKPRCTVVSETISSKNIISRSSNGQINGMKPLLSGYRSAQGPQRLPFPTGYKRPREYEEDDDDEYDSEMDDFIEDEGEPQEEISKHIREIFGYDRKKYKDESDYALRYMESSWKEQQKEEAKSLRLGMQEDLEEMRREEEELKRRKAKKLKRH
UniProt Q69Z37: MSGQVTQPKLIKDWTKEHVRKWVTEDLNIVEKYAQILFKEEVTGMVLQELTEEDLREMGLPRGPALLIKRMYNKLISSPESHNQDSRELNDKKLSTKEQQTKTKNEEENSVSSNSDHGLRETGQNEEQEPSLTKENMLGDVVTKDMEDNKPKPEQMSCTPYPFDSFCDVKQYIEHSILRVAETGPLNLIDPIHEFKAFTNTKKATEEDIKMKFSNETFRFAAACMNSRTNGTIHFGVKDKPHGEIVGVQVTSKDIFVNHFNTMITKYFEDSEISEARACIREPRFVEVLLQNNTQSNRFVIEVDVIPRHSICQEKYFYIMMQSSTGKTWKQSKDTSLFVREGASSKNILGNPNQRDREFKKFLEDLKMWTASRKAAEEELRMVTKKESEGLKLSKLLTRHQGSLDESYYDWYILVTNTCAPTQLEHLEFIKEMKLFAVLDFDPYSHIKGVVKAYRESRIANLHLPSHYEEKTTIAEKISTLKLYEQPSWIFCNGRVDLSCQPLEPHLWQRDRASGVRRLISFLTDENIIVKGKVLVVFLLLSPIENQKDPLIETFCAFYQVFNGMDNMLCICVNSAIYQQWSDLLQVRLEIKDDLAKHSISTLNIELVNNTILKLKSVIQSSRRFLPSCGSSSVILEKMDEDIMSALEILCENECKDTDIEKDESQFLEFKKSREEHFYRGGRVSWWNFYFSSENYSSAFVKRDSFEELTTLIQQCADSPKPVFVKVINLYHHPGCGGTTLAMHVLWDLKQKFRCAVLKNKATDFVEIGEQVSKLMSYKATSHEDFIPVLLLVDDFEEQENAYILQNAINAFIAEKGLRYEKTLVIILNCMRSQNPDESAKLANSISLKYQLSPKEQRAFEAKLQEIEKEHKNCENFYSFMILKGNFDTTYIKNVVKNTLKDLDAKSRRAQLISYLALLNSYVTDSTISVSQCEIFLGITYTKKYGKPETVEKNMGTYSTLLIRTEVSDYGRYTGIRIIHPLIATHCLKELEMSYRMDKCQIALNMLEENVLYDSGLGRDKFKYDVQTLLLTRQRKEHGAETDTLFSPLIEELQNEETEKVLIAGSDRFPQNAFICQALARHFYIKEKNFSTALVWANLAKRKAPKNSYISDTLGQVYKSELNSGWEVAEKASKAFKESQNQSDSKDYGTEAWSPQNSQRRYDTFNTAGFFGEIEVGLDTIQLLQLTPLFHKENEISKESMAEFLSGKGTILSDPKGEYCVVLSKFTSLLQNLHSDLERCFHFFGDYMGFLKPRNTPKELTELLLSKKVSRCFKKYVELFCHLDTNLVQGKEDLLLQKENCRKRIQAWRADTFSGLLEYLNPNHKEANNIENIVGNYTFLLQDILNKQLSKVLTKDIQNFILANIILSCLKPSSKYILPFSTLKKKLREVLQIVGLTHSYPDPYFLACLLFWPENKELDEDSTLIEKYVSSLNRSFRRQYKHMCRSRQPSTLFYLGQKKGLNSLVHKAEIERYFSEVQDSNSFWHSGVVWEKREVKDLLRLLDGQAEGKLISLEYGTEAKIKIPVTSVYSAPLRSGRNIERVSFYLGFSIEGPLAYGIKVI
UniProt Q64345: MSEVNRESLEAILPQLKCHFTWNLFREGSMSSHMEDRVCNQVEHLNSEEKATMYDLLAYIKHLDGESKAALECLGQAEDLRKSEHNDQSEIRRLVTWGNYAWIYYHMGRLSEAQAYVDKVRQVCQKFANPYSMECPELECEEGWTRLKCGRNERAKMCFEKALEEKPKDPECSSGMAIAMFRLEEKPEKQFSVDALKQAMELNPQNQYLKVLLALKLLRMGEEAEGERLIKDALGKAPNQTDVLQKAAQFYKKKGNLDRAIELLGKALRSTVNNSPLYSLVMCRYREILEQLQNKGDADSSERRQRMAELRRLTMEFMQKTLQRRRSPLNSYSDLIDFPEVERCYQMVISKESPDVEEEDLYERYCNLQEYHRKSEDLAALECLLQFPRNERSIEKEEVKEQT
UniProt Q62418: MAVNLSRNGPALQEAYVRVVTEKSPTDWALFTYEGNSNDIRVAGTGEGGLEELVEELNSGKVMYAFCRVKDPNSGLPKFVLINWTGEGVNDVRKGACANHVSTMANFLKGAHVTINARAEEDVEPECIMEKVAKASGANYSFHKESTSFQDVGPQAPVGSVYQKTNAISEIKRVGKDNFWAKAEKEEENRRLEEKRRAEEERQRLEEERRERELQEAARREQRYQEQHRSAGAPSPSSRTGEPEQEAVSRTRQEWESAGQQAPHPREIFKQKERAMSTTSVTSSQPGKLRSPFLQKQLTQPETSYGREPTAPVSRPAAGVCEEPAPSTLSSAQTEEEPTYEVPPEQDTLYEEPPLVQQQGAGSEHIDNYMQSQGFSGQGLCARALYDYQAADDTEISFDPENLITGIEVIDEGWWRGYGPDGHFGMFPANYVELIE
UniProt Q64436, whole entry: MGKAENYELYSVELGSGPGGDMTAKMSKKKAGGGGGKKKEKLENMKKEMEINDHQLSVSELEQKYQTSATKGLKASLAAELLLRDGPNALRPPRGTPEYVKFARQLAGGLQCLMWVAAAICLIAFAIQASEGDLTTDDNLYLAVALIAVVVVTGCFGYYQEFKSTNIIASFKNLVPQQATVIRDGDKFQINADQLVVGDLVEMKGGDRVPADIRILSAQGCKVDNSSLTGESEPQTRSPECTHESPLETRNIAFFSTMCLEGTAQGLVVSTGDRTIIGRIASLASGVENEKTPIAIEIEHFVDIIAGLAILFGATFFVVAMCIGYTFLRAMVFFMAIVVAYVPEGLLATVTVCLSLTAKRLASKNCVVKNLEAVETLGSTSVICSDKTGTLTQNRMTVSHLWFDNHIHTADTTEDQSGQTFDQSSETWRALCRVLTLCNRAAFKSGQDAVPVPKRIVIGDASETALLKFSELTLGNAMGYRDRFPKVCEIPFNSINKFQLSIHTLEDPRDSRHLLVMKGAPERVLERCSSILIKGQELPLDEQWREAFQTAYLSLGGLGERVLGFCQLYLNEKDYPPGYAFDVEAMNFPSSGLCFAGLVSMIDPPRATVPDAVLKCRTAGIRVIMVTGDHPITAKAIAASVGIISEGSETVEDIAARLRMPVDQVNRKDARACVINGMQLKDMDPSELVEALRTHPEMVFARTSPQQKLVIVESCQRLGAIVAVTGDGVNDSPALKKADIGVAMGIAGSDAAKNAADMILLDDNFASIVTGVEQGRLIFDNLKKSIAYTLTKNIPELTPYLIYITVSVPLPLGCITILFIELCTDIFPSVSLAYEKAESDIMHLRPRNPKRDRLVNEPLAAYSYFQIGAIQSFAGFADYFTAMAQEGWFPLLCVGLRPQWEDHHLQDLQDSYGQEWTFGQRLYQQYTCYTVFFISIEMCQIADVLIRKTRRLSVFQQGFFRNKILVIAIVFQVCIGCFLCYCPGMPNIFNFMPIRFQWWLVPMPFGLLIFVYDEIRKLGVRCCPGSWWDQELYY
UniProt Q61656: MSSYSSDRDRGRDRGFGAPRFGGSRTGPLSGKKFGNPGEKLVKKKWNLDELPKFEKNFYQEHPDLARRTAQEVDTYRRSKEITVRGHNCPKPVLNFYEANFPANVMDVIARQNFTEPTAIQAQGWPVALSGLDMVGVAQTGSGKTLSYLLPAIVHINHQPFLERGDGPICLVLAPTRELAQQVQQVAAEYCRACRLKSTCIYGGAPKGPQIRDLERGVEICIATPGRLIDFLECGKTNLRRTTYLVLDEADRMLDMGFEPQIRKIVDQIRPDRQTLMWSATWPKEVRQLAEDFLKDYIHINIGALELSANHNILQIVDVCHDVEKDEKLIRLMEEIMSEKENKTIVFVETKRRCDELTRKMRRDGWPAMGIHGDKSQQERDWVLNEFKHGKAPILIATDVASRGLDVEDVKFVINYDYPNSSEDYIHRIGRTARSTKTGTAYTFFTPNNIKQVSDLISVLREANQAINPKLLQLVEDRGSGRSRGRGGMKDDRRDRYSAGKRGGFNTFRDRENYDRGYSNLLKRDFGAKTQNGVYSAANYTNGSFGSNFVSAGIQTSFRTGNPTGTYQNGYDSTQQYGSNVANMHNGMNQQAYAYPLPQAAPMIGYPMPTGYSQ
UniProt Q68FH4: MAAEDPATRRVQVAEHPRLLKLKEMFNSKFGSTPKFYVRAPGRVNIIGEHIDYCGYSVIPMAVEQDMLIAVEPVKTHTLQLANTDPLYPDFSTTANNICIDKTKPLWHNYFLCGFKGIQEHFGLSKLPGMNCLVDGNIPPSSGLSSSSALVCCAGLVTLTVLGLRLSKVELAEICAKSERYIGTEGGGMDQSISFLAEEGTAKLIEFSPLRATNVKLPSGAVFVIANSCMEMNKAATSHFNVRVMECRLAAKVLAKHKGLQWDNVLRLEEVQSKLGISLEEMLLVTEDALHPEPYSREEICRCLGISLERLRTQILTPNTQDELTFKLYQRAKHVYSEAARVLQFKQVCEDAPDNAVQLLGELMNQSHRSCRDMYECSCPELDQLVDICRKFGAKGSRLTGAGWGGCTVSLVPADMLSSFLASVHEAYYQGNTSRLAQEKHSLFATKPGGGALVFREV

The list shows a part of the results. Most values lie at the level of the controls, where differences are scatter.
Each target was assayed with CN[C@@H]1C[C@H]2O[C@@](C)([C@@H]1OC)n1c3ccccc3c3c4c(c5c6ccccc6n2c5c31)C(=O)NC4 [staurosporine] (assay: log2 fold change of tryptic peptide abundance, ligand vs vehicle (limited proteolysis) (log2 ratio); higher = more trypsin-susceptible (destabilized)). Details: ligand concentration: 20 uM; sample: mouse liver crude lysate; replicate design: treated separately.
Target “UniProt Q64514 (peptide sequence: DLPFIVSHR, peptide start residue: 905)” has a log2 fold change of 0.174. In the case of “UniProt Q62351 (peptide sequence: LTTDFHNAEK, peptide start residue: 659)”, the log2 fold change is reported as 0.439. “UniProt Q68FG3 (peptide sequence: GLPFPQAEK, peptide start residue: 254)” showed a log2 fold change of 0.177. In the case of “UniProt Q69Z37 (peptide sequence: IKIPVTSVYSAPLR, peptide start residue: 1521)”, the log2 fold change is reported as -0.73. With “UniProt Q64345 (peptide sequence: SIEKEEVK, peptide start residue: 393)” the log2 fold change was -0.275. “UniProt Q62418 (peptide sequence: ASGANYSFHK, peptide start residue: 135)” showed a log2 fold change of -0.155. “UniProt Q64436 (peptide sequence: VIMVTGDHPITAK, peptide start residue: 613)” showed a log2 fold change of -0.341. “UniProt Q61464 (peptide sequence: KDYQSEADLPIR, peptide start residue: 369)” showed a log2 fold change of -0.401. For “UniProt Q61656 (peptide sequence: RTTYLVLDEADR, peptide start residue: 241)”, the log2 fold change was -0.633. For “UniProt Q61333 (peptide sequence: LDAQPATAPEGR, peptide start residue: 236)”, the log2 fold change was -0.237. “UniProt Q68FH4 (peptide sequence: TKPLWHNYFLCGFK, peptide start residue: 103)” was tested, and the log2 fold change was 0.376.

— the supplement of paper PMC12819154, “High-throughput peptide-centric local stability assay extends protein–ligand identification to membrane proteins, tissues and bacteria” (Nature Structural & Molecular Biology, 2025)
